# In the supplement of paper PMC8728848:
# This is one part of the list.
# B1: pilr alpha (protein)
# chain: MLYGVTQPKHLSASMGGSVEIPFSFYYPWELATAPDVRISWRRGHFHRQSFYSTRPPSIHKDYVNRLFLNWTEGQKSGFLRISNLQKQDQSVYFCRVELDTRSSGRQQWQSIEGTKLSIT
# Key:
# Experiment in all cases: glycan array binding signal (z-score within array); higher = stronger binding
# Conditions in all cases: glycan notation: IUPAC condensed, linker removed
# Neu5Ac(a2-8)Neu5Ac = molecular target: Neu5Ac(a2-8)Neu5Ac
# Method in brief: (§1)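 The binding signal is a Z-score computed within each array and averaged over linkers. Arrays of the same protein sequence at different concentrations or buffers were also averaged together. Data originate from 3228 arrays in the Consortium for Functional Glycomics database, kept only where the protein sequence was available.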
# [1] = molecular target: Neu5Ac(a2-8)Neu5Ac(a2-3)Gal(b1-3)GalNAc(b1-4)[Neu5Ac(a2-3)]Gal(b1-4)Glc
# Method in brief: as §1
# [2] = molecular target: Neu5Ac(a2-8)Neu5Ac(a2-3)Gal(b1-3)GalNAc(b1-4)[Neu5Ac(a2-8)Neu5Ac(a2-3)]Gal(b1-4)Glc
# Method in brief: as §1
# [3] = molecular target: Neu5Ac(a2-8)Neu5Ac(a2-3)Gal(b1-4)Glc
# Method in brief: as §1
# [4] = molecular target: Neu5Ac(a2-8)Neu5Ac(a2-3)Gal(b1-4)GlcNAc
# Method in brief: as §1
# [5] = molecular target: Neu5Ac(a2-8)Neu5Ac(a2-3)[Gal(b1-3)GalNAc(b1-4)]Gal(b1-4)Glc
# Method in brief: as §1
# [6] = molecular target: Neu5Ac(a2-8)Neu5Ac(a2-3)[GalNAc(b1-4)]Gal(b1-4)Glc
# Method in brief: as §1
# [7] = molecular target: Neu5Ac(a2-8)Neu5Ac(a2-8)Neu5Ac
# Method in brief: as §1
# [8] = molecular target: Neu5Ac(a2-8)Neu5Ac(a2-8)Neu5Ac(a2-3)Gal(b1-4)Glc
# Method in brief: as §1
# [9] = molecular target: Neu5Ac(a2-8)Neu5Ac(a2-8)Neu5Ac(a2-3)[Gal(b1-3)GalNAc(b1-4)]Gal(b1-4)Glc
# Method in brief: as §1
# [10] = molecular target: Neu5Ac(a2-8)Neu5Ac(a2-8)Neu5Ac(a2-3)[GalNAc(b1-4)]Gal(b1-4)Glc
# Method in brief: as §1
# [11] = molecular target: Neu5Ac(a2-8)Neu5Ac(a2-8)Neu5Ac(a2-8)Neu5Ac(a2-3)[GalNAc(b1-4)]Gal(b1-4)Glc
# Method in brief: as §1
# [12] = molecular target: Neu5Ac(a2-8)Neu5Gc(a2-3)Gal(b1-4)GlcNAc
# Method in brief: as §1
# [13] = molecular target: Neu5Ac(b2-6)Gal(b1-4)GlcNAc
# Method in brief: as §1
# Neu5Ac(b2-6)GalNAc = molecular target: Neu5Ac(b2-6)GalNAc
# Method in brief: as §1
# [14] = molecular target: Neu5Ac9Ac(a2-3)Gal(b1-3)GlcNAc
# Method in brief: as §1
# [15] = molecular target: Neu5Ac9Ac(a2-3)Gal(b1-4)GlcNAc
# Method in brief: as §1
# [16] = molecular target: Neu5Ac9Ac(a2-6)Gal(b1-4)GlcNAc
# Method in brief: as §1
# [17] = molecular target: Neu5Gc(a2-3)Gal(b1-3)GlcNAc
# Method in brief: as §1
# [18] = molecular target: Neu5Gc(a2-3)Gal(b1-3)[Fuc(a1-4)]GlcNAc
# Method in brief: as §1
# Neu5Gc(a2-3)Gal(b1-4)Glc = molecular target: Neu5Gc(a2-3)Gal(b1-4)Glc
# Method in brief: as §1
# [19] = molecular target: Neu5Gc(a2-3)Gal(b1-4)GlcNAc
# Method in brief: as §1
# [20] = molecular target: Neu5Gc(a2-3)Gal(b1-4)GlcNAc(b1-3)Gal(b1-4)GlcNAc(b1-2)Man(a1-3)[Neu5Gc(a2-3)Gal(b1-4)GlcNAc(b1-3)Gal(b1-4)GlcNAc(b1-2)Man(a1-6)]Man(b1-4)GlcNAc(b1-4)GlcNAc
# Method in brief: as §1
# [21] = molecular target: Neu5Gc(a2-3)Gal(b1-4)[Fuc(a1-3)]GlcNAc
# Method in brief: as §1
# [22] = molecular target: Neu5Gc(a2-6)Gal(b1-4)GlcNAc
# Method in brief: as §1
# Neu5Gc(a2-6)GalNAc = molecular target: Neu5Gc(a2-6)GalNAc
# Method in brief: as §1
# [23] = molecular target: Neu5Gc(a2-8)Neu5Ac(a2-3)Gal(b1-4)GlcNAc
# Method in brief: as §1
# [24] = molecular target: Neu5Gc(a2-8)Neu5Gc(a2-3)Gal(b1-4)GlcNAc
# Method in brief: as §1
# [25] = molecular target: Neu5Gc(a2-8)Neu5Gc(a2-3)Gal(b1-4)GlcNAc(b1-3)Gal(b1-4)GlcNAc
# Method in brief: as §1
# [26] = molecular target: Neu5Gc(a2-8)Neu5Gc(a2-6)Gal(b1-4)GlcNAc
# Method in brief: as §1
# [27] = molecular target: Neu5Gc(b2-6)Gal(b1-4)GlcNAc
# Method in brief: as §1
binder,measurement,setting,value
B1,glycan array binding signal (z-score),Neu5Ac(a2-8)Neu5Ac,0.165
same,glycan array binding signal (z-score),[1],-0.262
same,glycan array binding signal (z-score),[2],0.377
same,glycan array binding signal (z-score),[3],-0.807
same,glycan array binding signal (z-score),[4],-0.265
same,glycan array binding signal (z-score),[5],-0.167
same,glycan array binding signal (z-score),[6],0.799
same,glycan array binding signal (z-score),[7],-0.392
same,glycan array binding signal (z-score),[8],-0.454
same,glycan array binding signal (z-score),[9],-0.202
same,glycan array binding signal (z-score),[10],0.613
same,glycan array binding signal (z-score),[11],-0.61
same,glycan array binding signal (z-score),[12],-0.196
same,glycan array binding signal (z-score),[13],-0.768
same,glycan array binding signal (z-score),Neu5Ac(b2-6)GalNAc,-0.742
same,glycan array binding signal (z-score),[14],-0.175
same,glycan array binding signal (z-score),[15],-0.345
same,glycan array binding signal (z-score),[16],-0.47
same,glycan array binding signal (z-score),[17],-0.368
same,glycan array binding signal (z-score),[18],-0.745
same,glycan array binding signal (z-score),Neu5Gc(a2-3)Gal(b1-4)Glc,-0.544
same,glycan array binding signal (z-score),[19],0.05
same,glycan array binding signal (z-score),[20],-0.532
same,glycan array binding signal (z-score),[21],-0.261
same,glycan array binding signal (z-score),[22],-0.584
same,glycan array binding signal (z-score),Neu5Gc(a2-6)GalNAc,-0.353
same,glycan array binding signal (z-score),[23],-0.381
same,glycan array binding signal (z-score),[24],-0.278
same,glycan array binding signal (z-score),[25],0.003
same,glycan array binding signal (z-score),[26],-0.725
same,glycan array binding signal (z-score),[27],0.088
